{"source": "PubChem BioAssay AID686938 (Drosophila RNAi Screening Center, 2013)", "screen": "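Fly genes required for calcium entry once internal stores are emptied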 (primary screen)", "system": "Drosophila S2R+ cells", "reagents": "long dsRNA against Drosophila genes, about 0.25 µg dsRNA per well, roughly 10,000 cells", "duration": "5 days of knock-down before the calcium assay", "conditions": "thapsigargin (SERCA pump blocker) to empty calcium stores; entry signal taken 4 min after adding it", "detection": "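Duplicate raw fluo-4 intensities per well from a plate reader, at rest and four minutes after thapsigargin emptied calcium stores; entry-to-rest ratio filled for only some wells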", "direction": "calcium entry signal: higher = stronger calcium signal after store depletion; resting calcium signal: higher = higher resting calcium signal", "hit rule": "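Called when the plate z-score of the entry-to-rest ratio, mean of duplicates, falls below −3; wells with low overall dye signal (Fmax z below −2) or more than five off-targets excluded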", "meaning of the calls": "active = strongly reduced calcium entry; inactive = no strong reduction", "note": "The screen tested about 23,000 reagents; this is a random part of those that have a named target and a result. Over the whole deposit, 75 (0.33%) were called active. 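Raw plate signals without normalisation; calls rest on plate z-scores that were not deposited; ratio present for only 364 wells.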 Not given: the dose of the treatment."}
{"Target gene": "Fic", "amplicon": "DRSC03247", "calcium entry signal, replicate 1 (fluorescence units)": 4.66e7, "resting calcium signal, replicate 1 (fluorescence units)": 2.25e7, "activity call": "inactive"}
{"Target gene": "bou", "amplicon": "DRSC17924", "calcium entry signal, replicate 1 (fluorescence units)": 3.57e7, "calcium entry signal, replicate 2 (fluorescence units)": 5.33e7, "resting calcium signal, replicate 1 (fluorescence units)": 1.86e7, "resting calcium signal, replicate 2 (fluorescence units)": 2.30e7, "activity call": "inactive"}
{"Target gene": "Mccc1", "amplicon": "DRSC15417", "calcium entry signal, replicate 1 (fluorescence units)": 3.78e7, "calcium entry signal, replicate 2 (fluorescence units)": 4.21e7, "resting calcium signal, replicate 1 (fluorescence units)": 1.77e7, "resting calcium signal, replicate 2 (fluorescence units)": 2.00e7, "activity call": "inactive"}
{"Target gene": "scpr-B", "amplicon": "DRSC15200", "calcium entry signal, replicate 1 (fluorescence units)": 2.92e7, "calcium entry signal, replicate 2 (fluorescence units)": 2.94e7, "resting calcium signal, replicate 1 (fluorescence units)": 1.26e7, "resting calcium signal, replicate 2 (fluorescence units)": 1.46e7, "activity call": "inactive"}
{"Target gene": "CG2931", "amplicon": "DRSC12324", "calcium entry signal, replicate 1 (fluorescence units)": 5.61e7, "calcium entry signal, replicate 2 (fluorescence units)": 4.33e7, "resting calcium signal, replicate 1 (fluorescence units)": 2.72e7, "resting calcium signal, replicate 2 (fluorescence units)": 1.83e7, "activity call": "inactive"}
{"Target gene": "CG13982", "amplicon": "DRSC02314", "calcium entry signal, replicate 1 (fluorescence units)": 2.46e7, "calcium entry signal, replicate 2 (fluorescence units)": 1.97e7, "resting calcium signal, replicate 1 (fluorescence units)": 1.24e7, "resting calcium signal, replicate 2 (fluorescence units)": 1.02e7, "activity call": "inactive"}
{"Target gene": "CG16978", "amplicon": "DRSC02553", "calcium entry signal, replicate 1 (fluorescence units)": 4.19e7, "calcium entry signal, replicate 2 (fluorescence units)": 3.25e7, "resting calcium signal, replicate 1 (fluorescence units)": 2.02e7, "resting calcium signal, replicate 2 (fluorescence units)": 1.45e7, "activity call": "inactive"}
{"Target gene": "CG7889", "amplicon": "DRSC20066", "calcium entry signal, replicate 1 (fluorescence units)": 4.16e7, "calcium entry signal, replicate 2 (fluorescence units)": 3.92e7, "resting calcium signal, replicate 1 (fluorescence units)": 1.97e7, "resting calcium signal, replicate 2 (fluorescence units)": 2.00e7, "activity call": "inactive"}
{"Target gene": "ckn", "amplicon": "DRSC06149", "calcium entry signal, replicate 1 (fluorescence units)": 4.82e7, "calcium entry signal, replicate 2 (fluorescence units)": 3.41e7, "resting calcium signal, replicate 1 (fluorescence units)": 2.34e7, "resting calcium signal, replicate 2 (fluorescence units)": 1.78e7, "activity call": "inactive"}
{"Target gene": "CG8565", "amplicon": "DRSC20112", "calcium entry signal, replicate 1 (fluorescence units)": 4.72e7, "calcium entry signal, replicate 2 (fluorescence units)": 3.48e7, "resting calcium signal, replicate 1 (fluorescence units)": 2.20e7, "resting calcium signal, replicate 2 (fluorescence units)": 1.43e7, "activity call": "inactive"}
{"Target gene": "CG32110", "amplicon": "DRSC09220", "calcium entry signal, replicate 1 (fluorescence units)": 3.72e7, "calcium entry signal, replicate 2 (fluorescence units)": 4.42e7, "resting calcium signal, replicate 1 (fluorescence units)": 1.74e7, "resting calcium signal, replicate 2 (fluorescence units)": 2.01e7, "activity call": "inactive"}
{"Target gene": "CAH2", "amplicon": "DRSC10746", "calcium entry signal, replicate 1 (fluorescence units)": 3.00e7, "calcium entry signal, replicate 2 (fluorescence units)": 3.91e7, "resting calcium signal, replicate 1 (fluorescence units)": 1.56e7, "resting calcium signal, replicate 2 (fluorescence units)": 1.90e7, "activity call": "inactive"}
{"Target gene": "CG32487", "amplicon": "DRSC21745", "calcium entry signal, replicate 1 (fluorescence units)": 3.30e7, "calcium entry signal, replicate 2 (fluorescence units)": 3.78e7, "resting calcium signal, replicate 1 (fluorescence units)": 1.82e7, "resting calcium signal, replicate 2 (fluorescence units)": 1.74e7, "activity call": "inactive"}
{"Target gene": "CG14252", "amplicon": "DRSC14747", "calcium entry signal, replicate 1 (fluorescence units)": 2.96e7, "calcium entry signal, replicate 2 (fluorescence units)": 5.20e7, "resting calcium signal, replicate 1 (fluorescence units)": 1.64e7, "resting calcium signal, replicate 2 (fluorescence units)": 2.24e7, "activity call": "inactive"}

Already shown: entries from further up.
{"Target gene": "CG2931", "amplicon": "DRSC12324", "calcium entry signal, replicate 1 (fluorescence units)": 5.61e7, "calcium entry signal, replicate 2 (fluorescence units)": 4.33e7, "resting calcium signal, replicate 1 (fluorescence units)": 2.72e7, "resting calcium signal, replicate 2 (fluorescence units)": 1.83e7, "activity call": "inactive"}
{"Target gene": "CG13982", "amplicon": "DRSC02314", "calcium entry signal, replicate 1 (fluorescence units)": 2.46e7, "calcium entry signal, replicate 2 (fluorescence units)": 1.97e7, "resting calcium signal, replicate 1 (fluorescence units)": 1.24e7, "resting calcium signal, replicate 2 (fluorescence units)": 1.02e7, "activity call": "inactive"}
